Entries after “also recorded” stand apart in the source; their conditions may differ. Structures can show the parent of a compound that is named as a salt.
assay: CO release shown by characterisation of reaction byproduct (NMR, mass spectrometry); assay type: physicochemical; details: optimal pH (pH=7.4); byproducts characterised by NMR and mass spectrometry

Compound | release of CO with formation of byproduct BP-X
CC(C)(C)OC(=O)NCCN(CCN1C(=O)C2C3(C)C(=O)C(C)(C(c4ccccc4)=C3c3ccccc3)C2(Br)C1=O)C(=O)OC(C)(C)C (stereo not drawn) [oCOm-22, Tert-Butyl (2-(3a-bromo-4,7-dimethyl-1,3,8-trioxo-5,6-diphenyl-3a,4,7,7a-tetrahydro-1H-4,7-methanoisoindol-2(2H)-yl)ethyl)(2-((tert-butoxycarbonyl)amino)ethyl)carbamate] | releases CO forming BP-22
COCCOCCOCCOc1ccc(C2=C(c3ccc(OCCOCCOCCOC)cc3)C3(C)C(=O)C2(C)C2C(=O)N(c4ccc(OCCOCCOCCOC)cc4)C(=O)C23Br)cc1 (stereo not drawn) [oCOm-15, 3a-Bromo-3a,4,7,7a-tetrahydro-4,7-dimethyl-2,5,6-tri-(4-(2-(2-(2-methoxyethoxy)ethoxy)ethoxy)phenyl)-4,7-methano-1H-isoindole-1,3,8(2H)-trione] | releases CO forming BP-15
CC12C(=O)C(C)(C(c3ccccc3)=C1c1ccccc1)C1(Br)C(=O)N(CCC(=O)NCCN)C(=O)C21.Cl (stereo not drawn) [oCOm-19, N-(2-Aminoethyl)-3-(3a-bromo-4,7-dimethyl-1,3,8-trioxo-5,6-diphenyl-3a,4,7,7a-tetrahydro-1H-4,7-methanoisoindol-2(2H)-yl)propanamide hydrochloride] | releases CO forming BP-19
CC12C(=O)C(C)(C(c3ccccc3)=C1c1ccccc1)C1(S(=O)(=O)c3ccccc3)C(=O)N(c3ccccc3)C(=O)C21 (stereo not drawn) [oCOm-6, 3a-Phenylsulfonyl-3a,4,7,7a-tetrahydro-4,7-dimethyl-2,5,6-triphenyl-4,7-methano-1H-isoindole-1,3,8(2H)-trione] | release carbon monoxide
CC12C(=O)C(C)(C(c3ccccc3)=C1c1ccccc1)C1(Cl)C(=O)N(c3ccccc3)C(=O)C21 (stereo not drawn) [oCOm-2, 3a-Chloro-3a,4,7,7a-tetrahydro-4,7-dimethyl-2,5,6-triphenyl-4,7-methano-1H-isoindole-1,3,8(2H)-trione] | release carbon monoxide
CC12C(=O)C(C)(C(c3ccccc3)=C1c1ccccc1)C1(Br)C(=O)N(CCC(=O)ON3C(=O)CCC3=O)C(=O)C21 (stereo not drawn) [oCOm-17, 2,5-Dioxopyrrolidin-1-yl 3-(3a-bromo-4,7-dimethyl-1,3,8-trioxo-5,6-diphenyl-1,3,3a,4,7,7a-hexahydro-2H-4,7-methanoisoindol-2-yl)propanoate] | releases CO forming BP-17
CC(C)(C)OC(=O)NCCN1C(=O)C2C3(C)C(=O)C(C)(C(c4ccccc4)=C3c3ccccc3)C2(Br)C1=O (stereo not drawn) [oCOm-20, Tert-Butyl (2-(3a-bromo-4,7-dimethyl-1,3,8-trioxo-5,6-diphenyl-3a,4,7,7a-tetrahydro-2H-4,7-methanoisoindol-2-yl)ethyl)carbamate] | releases CO forming BP-20
CC12C(=O)C(C)(C(c3ccccc3)=C1c1ccccc1)C1(Br)C(=O)N(c3ccc(O)c(O)c3)C(=O)C21 (stereo not drawn) [oCOm-10, 3a-Bromo-3a,4,7,7a-tetrahydro-4,7-dimethyl-2-(3,4-dihydroxyphenyl)-5,6-diphenyl-4,7-methano-1H-isoindole-1,3,8(2H)-trione] | releases CO forming BP-10
CC12C(=O)C(C)(C(c3ccccc3)=C1c1ccccc1)C1(Br)C(=O)NC(=O)C21 (stereo not drawn) [oCOm-7, 3a-Bromo-4,7-dimethyl-5,6-diphenyl-3a,4,7,7a-tetrahydro-1H-4,7-methanoisoindole-1,3,8(2H)-trione] | release carbon monoxide
CC12C(=O)C(C)(C(c3ccccc3)=C1c1ccccc1)C1(Br)C(=O)N(c3ccc4c(c3)OCO4)C(=O)C21 (stereo not drawn) [oCOm-9, 3a-Bromo-3a,4,7,7a-tetrahydro-4,7-dimethyl-5,6-diphenyl-2-tri-(3,4-methylenedioxyphenyl)-4,7-methano-1H-isoindole-1,3,8(2H)-trione] | releases CO forming BP-9
CC12C(=O)C(C)(C(c3ccccc3)=C1c1ccccc1)C1([S+]([O-])c3ccccc3)C(=O)N(c3ccccc3)C(=O)C21 (stereo not drawn) [oCOm-5, 3a-Phenylsulfinyl-3a,4,7,7a-tetrahydro-4,7-dimethyl-2,5,6-triphenyl-4,7-methano-1H-isoindole-1,3,8(2H)-trione] | release carbon monoxide
CC(C)(C)OC(=O)NCCNC(=O)CCN1C(=O)C2C(Br)(C1=O)[C@]1(C)C(=O)[C@@]2(C)C(c2ccccc2)=C1c1ccccc1 (stereo partly drawn) [oCOm-18, Tert-Butyl (2-(3-((4S,7R)-3a-bromo-4,7-dimethyl-1,3,8-trioxo-5,6-diphenyl-3a,4,7,7a-tetrahydro-1H-4,7-methanoisoindol-2(2H)-yl)propanamido)ethyl)carbamate] | releases CO forming BP-18
CC(=O)OC[C@H]1O[C@@H](Oc2ccc(N3C(=O)C4C5(C)C(=O)C(C)(C(c6ccccc6)=C5c5ccccc5)C4(Br)C3=O)cc2)[C@H](OC(C)=O)[C@@H](OC(C)=O)[C@@H]1OC(C)=O (stereo partly drawn) [oCOm-14, 3a-Bromo-3a,4,7,7a-tetrahydro-4,7-dimethyl-2-(4-(2,3,4,6-tetra-O-acetyl-β-D-glucopyranosyloxy)phenyl)-5,6-diphenyl-4,7-methano-1H-isoindole-1,3,8(2H)-trione] | releases CO forming BP-14
CC(=O)OCCN1C(=O)C2C3(C)C(=O)C(C)(C(c4ccccc4)=C3c3ccccc3)C2(Br)C1=O (stereo not drawn) [oCOm-16, 3a-Bromo-3a,4,7,7a-tetrahydro-4,7-dimethyl-2-(2-acetoxyethyl)-5,6-diphenyl-4,7-methano-1H-isoindole-1,3,8(2H)-trione] | releases CO forming BP-16
CC12C(=O)C(C)(C(c3ccccc3)=C1c1ccccc1)C1(Sc3ccccc3)C(=O)N(c3ccccc3)C(=O)C21 (stereo not drawn) [oCOm-4, 3a-Phenylthio-3a,4,7,7a-tetrahydro-4,7-dimethyl-2,5,6-triphenyl-4,7-methano-1H-isoindole-1,3,8(2H)-trione] | release carbon monoxide
CC12C(=O)C(C)(C(c3ccccc3)=C1c1ccccc1)C1(Br)C(=O)N(c3ccc(O)cc3)C(=O)C21 (stereo not drawn) [oCOm-8, 3a-Bromo-3a,4,7,7a-tetrahydro-4,7-dimethyl-2-(4-hydroxyphenyl)-5,6-diphenyl-4,7-methano-1H-isoindole-1,3,8(2H)-trione] | release carbon monoxide; also recorded: releases CO forming BP-8
CC12C(=O)C(C)(C(c3ccccc3)=C1c1ccccc1)C1(Br)C(=O)N(c3ccc(O)c([N+](=O)[O-])c3)C(=O)C21 (stereo not drawn) [oCOm-11, 3a-Bromo-3a,4,7,7a-tetrahydro-4,7-dimethyl-2-(4-hydroxy-3-nitrophenyl)-5,6-diphenyl-4,7-methano-1H-isoindole-1,3,8(2H)-trione] | releases CO forming BP-11
CC12C(=O)C(C)(C(c3ccccc3)=C1c1ccccc1)C1(I)C(=O)N(c3ccccc3)C(=O)C21 (stereo not drawn) [oCOm-3, 3a-Iodo-3a,4,7,7a-tetrahydro-4,7-dimethyl-2,5,6-triphenyl-4,7-methano-1H-isoindole-1,3,8(2H)-trione] | release carbon monoxide
CC12C(=O)C(C)(C(c3ccccc3)=C1c1ccccc1)C1(Br)C(=O)N(CCNCCN)C(=O)C21 (stereo not drawn) [oCOm-23, 2-(2-(2-Aminoethyl)aminoethyl)-3a-bromo-3a,4,7,7a-tetrahydro-4,7-dimethyl-5,6-diphenyl-4,7-methano-1H-isoindole-1,3,8(2H)-trione bis-trifluoroacetate Salt] | releases CO forming BP-23
CC12C(=O)C(C)(C(c3ccccc3)=C1c1ccccc1)C1(Br)C(=O)N(CCC(=O)NC(CO)(CO)CO)C(=O)C21 (stereo not drawn) [oCOm-24, N-(2-Hydroxy-1,1-bis(hydroxymethyl)ethyl)-3-(3a-bromo-4,7-dimethyl-1,3,8-trioxo-5,6-diphenyl-3a,4,7,7a-tetrahydro-1H-4,7-methanoisoindol-2(2H)-yl)propanamide] | releases CO forming BP-24
CC12C(=O)C(C)(C(c3ccccc3)=C1c1ccccc1)C1(Br)C(=O)N(c3ccccc3)C(=O)C21 (stereo not drawn) [oCOm-1, 3a-Bromo-3a,4,7,7a-tetrahydro-4,7-dimethyl-2,5,6-triphenyl-4,7-methano-1H-isoindole-1,3,8(2H)-trione] | release carbon monoxide

Source: US11072584B2, “Carbon monoxide releasing norbornenone compounds” (OTAGO INNOVATION LIMITED, priority 2015, dated 2021)
